According to PubChem BioAssay AID445 (National Center for Advancing Translational Sciences (NCATS), 2006):
The other results are listed elsewhere or left out. These are further read-outs of the screen, such as a control signal, another cell line or another target. No call is given for them. The list favours compounds with an active or inconclusive main result. Potencies come from curve fits of mixed quality, noted in brackets.

Experiment: IkB Signaling
Conditions: ABC-DLBCL IkBa-CBG/CBR dual luciferase ratio (green luciferase fused to IkBa over red control in OCI-Ly3 lymphoma cells), 4 h; measured here: control luc red channel unless noted
Procedure, shortened: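 Luminescence ratio of IκBα-fused green versus native red beetle luciferase in OCI-Ly3 cells, 4 h post-doxycycline with compound; red signal alone, scaled from basal (0%) to zero light (-100%), flagged nonspecific or cytotoxic effects.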

Question: With `O=C(CN1C(=O)CSc2ccc(S(=O)(=O)N3CCCC3)cc21)NCc1ccc(F)cc1Cl` as the compound, how does the AC50 read?
Answer: Its AC50 is 39.8 µM [falling, single point].

Question: For `Cc1cccc(NC(=O)N2CC=C(c3c[nH]c4ccccc34)CC2)c1C`, which AC50 is on record?
Answer: The AC50 was 15.8 µM [falling, partial curve].

Question: With `CCN(CC)C(=O)C1CCCN(c2ncnc3c2c(-c2ccccc2)cn3-c2cccc(C)c2)C1` (stereo unspecified) as the compound, how does the AC50 read?
Answer: Its AC50 is 25.1 µM [falling, partial curve].

Question: Which AC50 does the source give for `c1cncc(-c2nc(N3CCCCCC3)c3ccccc3n2)c1` here?
Answer: Its AC50 is 39.8 µM [falling, single point].

Question: For `COCCOC(=O)C1=C(C)N=c2s/c(=C\c3cccs3)c(=O)n2C1c1cccs1` (stereo unspecified), which AC50 is on record?
Answer: The AC50 was 0.631 µM [falling, full curve].

Question: With `Cc1cc(N2CCC(C)CC2)nc2ccc(NC(=O)CCC(=O)N3CCN(c4ccccc4F)CC3)cc12` as the compound, how does the AC50 read?
Answer: Its AC50 is 12.6 µM [falling, partial curve].

Question: For `COc1ccc(S(=O)(=O)N(CCc2ccccc2)CC(=O)Nc2cc(C)cc(C)c2)cc1OC`, which AC50 is on record?
Answer: The AC50 was 10 µM [falling, partial curve].

Question: For `COc1ccccc1N1CCN(S(=O)(=O)CCNC(=O)C(c2ccccc2)c2ccccc2)CC1`, which AC50 is on record?
Answer: Its AC50 is 15.8 µM [falling, partial curve, poor fit].

Question: With `Cc1ccc(C)c2[nH]c(=O)c(CN(CCN3CCCC3)C(=O)Nc3cccc(Cl)c3)cc12` as the compound, how does the AC50 read?
Answer: The AC50 was 25.1 µM [falling, partial curve].

Question: With `Cc1ccc2c(c1)c(C)c(C)n2CC(O)Cn1nnc2ccccc21` (stereo unspecified) as the compound, how does the AC50 read?
Answer: Its AC50 is 39.8 µM [falling, single point].

Question: Which AC50 does the source give for `CCN(CC)Cc1c[nH]c2c(C(=O)OC)cccc12` here?
Answer: The AC50 was 6.31 µM [falling, partial curve].

Question: Which AC50 does the source give for `CCOC(=O)c1[nH]c(C)c(CCC(=O)Nc2cc(Cl)c(OC)cc2OC)c1C` here?
Answer: Its AC50 is 15.8 µM [falling, single point].

Question: Which AC50 does the source give for `CCC(C)NC(=O)c1cn(CC)c2ccc(S(=O)(=O)N3CCc4ccccc4C3)cc2c1=O` (stereo unspecified) here?
Answer: Its AC50 is 15.8 µM [falling, partial curve].

Question: Which AC50 does the source give for `O=C(NCc1ccccc1Cl)c1ccc2c(c1)N(Cc1ccccc1)CCS2` here?
Answer: Its AC50 is 10 µM [falling, partial curve].

Question: For `Cc1ccccc1C(=O)Nc1ccccc1-c1nc(-c2ccccc2)no1`, which AC50 is on record?
Answer: Its AC50 is 0.002 µM [rising, full curve].

Question: For `CCOc1ccc2nc(N3CCCC(C(=O)NCCc4ccc(C)cc4)C3)sc2c1` (stereo unspecified), which AC50 is on record?
Answer: The AC50 was 0.0316 µM [falling, full curve, poor fit].

Question: With `CC(C(=O)Nc1ccccc1)n1nnc2sc3c(c2c1=O)CCCC3` (stereo unspecified) as the compound, how does the AC50 read?
Answer: The AC50 was 20 µM [falling, partial curve].

Question: Which AC50 does the source give for `Cc1nc2c(oc3ccccc32)c(=O)o1` here?
Answer: The AC50 was 3.98 µM [falling, partial curve].

Question: For `COc1ccc(NC(=O)CN2CCN(CC(=O)Nc3ccccc3Cl)CC2)cc1Cl`, which AC50 is on record?
Answer: Its AC50 is 15.8 µM [falling, partial curve].

Question: With `Cc1cccc(NC(=O)Nc2nnc(N3CCCC3)s2)c1` as the compound, how does the AC50 read?
Answer: Its AC50 is 12.6 µM [falling, partial curve].

Question: For `CCCCn1c(CNC(=O)C23CC4CC(CC(C4)C2)C3)nnc1SCC(=O)Nc1ccc(F)cc1`, which AC50 is on record?
Answer: The AC50 was 20 µM [falling, partial curve].

Question: With `O=C(CSc1nnc(-c2c[nH]c3ccccc23)n1-c1ccc(F)cc1)NCc1ccco1` as the compound, how does the AC50 read?
Answer: Its AC50 is 15.8 µM [falling, partial curve].

Question: For `Cc1ccc(NC(=O)C2CCCN2S(=O)(=O)c2ccc3nc(-c4ccccc4)[nH]c3c2)cc1C` (stereo unspecified), which AC50 is on record?
Answer: Its AC50 is 25.1 µM [falling, partial curve].

Question: With `CCOC(=O)N1CCN(C(=O)CSCC(=O)Nc2nc(-c3ccc(Cl)s3)cs2)CC1` as the compound, how does the AC50 read?
Answer: The AC50 was 3.16 µM [falling, full curve].

Question: For `CC(C)C(=O)Nc1cccc(C(=O)Nc2nnc(C(F)(F)F)s2)c1`, which AC50 is on record?
Answer: The AC50 was 15.8 µM [falling, partial curve].

Question: For `CCOc1ccccc1NC(=O)CCc1c(C)nc2cc(-c3ccccc3)nn2c1C`, which AC50 is on record?
Answer: The AC50 was 10 µM [falling, partial curve].

Question: For `COc1cccc(NC(=O)Cn2c(=O)n(CCc3cccc(C)c3)c(=O)c3ccccc32)c1`, which AC50 is on record?
Answer: The AC50 was 15.8 µM [falling, partial curve].

Question: For `Cc1cccc(NC(=O)c2c(NC(=O)c3ccco3)sc3c2CCC(C)C3)c1` (stereo unspecified), which AC50 is on record?
Answer: Its AC50 is 3.98 µM [falling, full curve].

Question: With `O=C(NCc1ccccc1Cl)c1ccc(-n2cnc3cccnc32)cc1` as the compound, how does the AC50 read?
Answer: Its AC50 is 25.1 µM [falling, single point].

Question: Which AC50 does the source give for `CCN(CC)C(=O)CSc1ncnc2c(-c3cccs3)nsc12` here?
Answer: Its AC50 is 25.1 µM [falling, partial curve].

Question: Which AC50 does the source give for `Cn1c(/C(C#N)=C/c2ccc(C(F)(F)F)cc2)nc2ccccc21` here?
Answer: The AC50 was 39.8 µM [falling, single point].

Question: Which AC50 does the source give for `Cc1ccc(CNC(=O)CSCc2nc(-c3cccc(C)c3)oc2C)cc1` here?
Answer: The AC50 was 25.1 µM [falling, partial curve].

Question: With `CCCN(CCC)C(=O)Cn1c(=O)n(-c2ccc(Cl)c(Cl)c2)c(=O)c2c(C)c(C(=O)N(C)C)sc21` as the compound, how does the AC50 read?
Answer: The AC50 was 3.98 µM [rising, partial curve].

Question: With `CCOc1ccc(OCC)c(NC(=O)C2CCCN(S(=O)(=O)c3ccc(C)cc3)C2)c1` (stereo unspecified) as the compound, how does the AC50 read?
Answer: The AC50 was 25.1 µM [falling, single point].

Question: For `O=C(O)CCC(=O)c1ccc(-c2ccccc2)cc1`, which AC50 is on record?
Answer: Its AC50 is 12.6 µM [falling, partial curve].

Question: With `CNc1sc(C(=O)c2cccs2)c(N)c1-c1nc2ccccc2s1` as the compound, how does the AC50 read?
Answer: Its AC50 is 20 µM [falling, partial curve].

Question: For `Cc1cccc(NC(=O)COc2ccc3oc4c(c3c2)CCCC4)c1`, which AC50 is on record?
Answer: Its AC50 is 15.8 µM [falling, partial curve].

Question: Which AC50 does the source give for `Cn1c(CN2CCOCC2)nc2cc(NC(=O)c3ccccc3Cl)ccc21` here?
Answer: The AC50 was 31.6 µM [falling, partial curve].

Question: With `CCCN1Cc2cccc(C(=O)Nc3ccc4c(c3)OCCO4)c2C1=O` as the compound, how does the AC50 read?
Answer: Its AC50 is 0.631 µM [rising, full curve].

Question: Which AC50 does the source give for `Cc1ccc(N2CC(C(=O)NCc3nnnn3-c3ccc(C)c(C)c3)CC2=O)cc1` (stereo unspecified) here?
Answer: Its AC50 is 39.8 µM [falling, single point].

Question: Which AC50 does the source give for `Cc1csc(SCC(=O)Nc2ccc(Cl)cn2)n1` here?
Answer: Its AC50 is 15.8 µM [falling, partial curve].
